# No constants are given. Whether binding was seen depends on the method and setting. Binding calls can cover weak binding; strength is not graded here.
# How the values were obtained:
# [1] = target: T1, fRSK1; assay: fluorescence polarisation; direct: fluorescein-labelled tracer peptide with increasing amounts of PDZ domain; triplicate; apparent; both purified
# T1 sequence (peptide, fluorescein coupled directly to the N-terminus): KLPSTTL
# [2] = target: T1, fRSK1; assay: fluorescence polarisation; competitive: 50 nM fluorescent tracer peptide pre-formed with the PDZ domain (>60-80% complex), unlabeled peptide added at 8 concentrations; 20 mM HEPES pH 7.5, 150 mM NaCl, 0.5 mM TCEP, 0.01% Tween 20; triplicate; apparent; both purified
substance,measurement,setting,value
MAST2-1 (human) (domain or fragment),binding,[1],binds
same,binding,[2],binds
HTRA1-1 (human) (domain or fragment),binding,[1],binds
same,binding,[2],binds

# Source: article PMC7774954, “Interactomic affinity profiling by holdup assay: Acetylation and distal residues impact the PDZome-binding specificity of PTEN phosphatase” (PLoS ONE, 2020)
